Measured values: PMC4254451, “The Crystal Structures of Apo and cAMP-Bound GlxR from Corynebacterium glutamicum Reveal Structural and Dynamic Changes upon cAMP Binding in CRP/FNR Family Transcription Factors”

Target: T1, GlxR (Cg-GlxR) (Corynebacterium glutamicum) (UniProt Q79VI7)
T1 sequence (looked up): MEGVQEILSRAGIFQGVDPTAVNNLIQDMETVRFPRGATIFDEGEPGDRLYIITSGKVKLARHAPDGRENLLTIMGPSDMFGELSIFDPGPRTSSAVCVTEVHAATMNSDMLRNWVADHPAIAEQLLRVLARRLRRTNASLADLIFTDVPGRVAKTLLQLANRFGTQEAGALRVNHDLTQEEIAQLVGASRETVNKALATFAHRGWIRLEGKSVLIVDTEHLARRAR
Assay: fluorescence anisotropy
Details: no cAMP (apo); 100 mM KH2PO4 pH 7.8, 200 mM KCl, 1 mM 1-thioglycerol, 0 or 1.5 mM cAMP, 5 nM labelled DNA; temperature not stated; recombinant protein; residues 1-227; protein details: His6 (N-terminal, pET16b); label: 5'-FITC on strand 1

ATTAATGTGAGTTAGCTCACTCATTA (double strand) [FITC-labelled 26-mer duplex]
Kd: 8.3 µM

Construct, isoform or probe ends are uncertain for at least one entry. Where a protein sequence is shown, tags need not be part of it.
